Results reported in the supplement of paper PMC10849652.
The other results are listed elsewhere or left out.

The chains behind the UniProt entries cited, without tags or fusion partners. Where a name states a change or a piece, a line headed by the entry shows the natural chain unless it says otherwise.
UniProt Q96B26, whole entry, looked up: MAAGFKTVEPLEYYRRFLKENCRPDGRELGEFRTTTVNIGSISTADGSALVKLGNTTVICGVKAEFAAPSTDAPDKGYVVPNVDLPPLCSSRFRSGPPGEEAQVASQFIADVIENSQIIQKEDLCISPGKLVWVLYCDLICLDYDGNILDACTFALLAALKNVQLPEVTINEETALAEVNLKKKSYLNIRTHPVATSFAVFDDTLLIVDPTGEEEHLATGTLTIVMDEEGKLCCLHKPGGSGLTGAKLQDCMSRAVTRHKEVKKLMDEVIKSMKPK
UniProt Q96CS3: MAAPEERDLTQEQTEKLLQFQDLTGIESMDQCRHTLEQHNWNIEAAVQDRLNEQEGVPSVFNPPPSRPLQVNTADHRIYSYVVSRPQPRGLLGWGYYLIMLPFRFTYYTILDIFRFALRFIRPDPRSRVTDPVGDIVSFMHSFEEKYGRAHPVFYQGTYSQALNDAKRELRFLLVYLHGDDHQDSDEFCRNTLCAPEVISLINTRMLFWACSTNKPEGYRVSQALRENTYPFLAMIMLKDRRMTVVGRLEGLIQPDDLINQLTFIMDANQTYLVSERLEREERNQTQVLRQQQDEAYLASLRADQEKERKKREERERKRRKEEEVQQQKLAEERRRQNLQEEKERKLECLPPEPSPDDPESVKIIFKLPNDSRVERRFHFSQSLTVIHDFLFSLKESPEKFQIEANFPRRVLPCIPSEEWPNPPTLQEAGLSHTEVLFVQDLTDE
UniProt Q6P587: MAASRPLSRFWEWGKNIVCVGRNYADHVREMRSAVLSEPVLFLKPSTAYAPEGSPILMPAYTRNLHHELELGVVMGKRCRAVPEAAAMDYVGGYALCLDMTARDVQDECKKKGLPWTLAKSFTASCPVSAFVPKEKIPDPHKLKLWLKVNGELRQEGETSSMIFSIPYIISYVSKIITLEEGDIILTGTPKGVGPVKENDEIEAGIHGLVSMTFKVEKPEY
UniProt Q9Y5Q0: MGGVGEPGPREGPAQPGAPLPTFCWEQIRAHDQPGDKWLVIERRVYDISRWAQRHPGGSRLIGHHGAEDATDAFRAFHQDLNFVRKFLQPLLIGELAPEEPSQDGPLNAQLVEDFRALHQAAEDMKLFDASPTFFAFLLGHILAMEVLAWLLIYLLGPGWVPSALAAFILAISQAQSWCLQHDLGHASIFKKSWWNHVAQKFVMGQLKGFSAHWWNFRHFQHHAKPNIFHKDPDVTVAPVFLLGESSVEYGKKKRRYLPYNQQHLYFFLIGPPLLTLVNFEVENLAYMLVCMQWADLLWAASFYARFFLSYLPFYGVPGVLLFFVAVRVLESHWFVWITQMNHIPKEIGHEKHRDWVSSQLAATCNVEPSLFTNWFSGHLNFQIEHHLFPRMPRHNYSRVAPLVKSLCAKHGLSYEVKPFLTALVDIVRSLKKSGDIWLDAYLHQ
UniProt P11474: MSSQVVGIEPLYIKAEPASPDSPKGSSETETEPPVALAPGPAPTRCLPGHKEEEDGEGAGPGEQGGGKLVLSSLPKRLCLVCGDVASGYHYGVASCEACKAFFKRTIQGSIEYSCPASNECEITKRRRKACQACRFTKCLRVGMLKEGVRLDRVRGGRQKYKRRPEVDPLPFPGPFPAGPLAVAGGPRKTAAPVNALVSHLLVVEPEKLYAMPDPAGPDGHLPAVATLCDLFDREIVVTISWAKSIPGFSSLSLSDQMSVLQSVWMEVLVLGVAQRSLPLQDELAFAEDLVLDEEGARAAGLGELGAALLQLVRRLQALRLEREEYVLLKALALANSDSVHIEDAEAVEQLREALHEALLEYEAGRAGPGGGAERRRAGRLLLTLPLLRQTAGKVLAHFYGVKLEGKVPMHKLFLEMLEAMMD
UniProt Q15910, whole entry, looked up: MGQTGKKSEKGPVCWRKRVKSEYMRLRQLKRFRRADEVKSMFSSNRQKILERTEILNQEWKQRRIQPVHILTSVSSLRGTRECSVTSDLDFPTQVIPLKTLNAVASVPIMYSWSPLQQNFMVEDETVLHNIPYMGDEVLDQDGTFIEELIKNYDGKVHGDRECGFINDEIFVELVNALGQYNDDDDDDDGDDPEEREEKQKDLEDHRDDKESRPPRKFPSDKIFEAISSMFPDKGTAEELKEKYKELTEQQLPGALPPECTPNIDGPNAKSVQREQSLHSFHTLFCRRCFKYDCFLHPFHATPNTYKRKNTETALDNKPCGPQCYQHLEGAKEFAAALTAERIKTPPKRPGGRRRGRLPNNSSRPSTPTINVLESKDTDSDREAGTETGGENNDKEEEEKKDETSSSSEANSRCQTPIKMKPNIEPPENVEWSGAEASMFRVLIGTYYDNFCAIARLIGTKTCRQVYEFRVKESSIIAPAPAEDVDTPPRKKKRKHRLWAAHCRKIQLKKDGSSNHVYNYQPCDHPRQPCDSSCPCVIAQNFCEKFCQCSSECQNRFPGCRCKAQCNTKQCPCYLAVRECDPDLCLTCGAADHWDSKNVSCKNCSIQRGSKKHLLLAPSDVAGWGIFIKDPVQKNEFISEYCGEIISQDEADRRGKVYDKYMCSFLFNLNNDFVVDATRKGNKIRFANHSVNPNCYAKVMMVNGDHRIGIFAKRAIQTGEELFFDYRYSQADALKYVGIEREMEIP
UniProt Q96KP1: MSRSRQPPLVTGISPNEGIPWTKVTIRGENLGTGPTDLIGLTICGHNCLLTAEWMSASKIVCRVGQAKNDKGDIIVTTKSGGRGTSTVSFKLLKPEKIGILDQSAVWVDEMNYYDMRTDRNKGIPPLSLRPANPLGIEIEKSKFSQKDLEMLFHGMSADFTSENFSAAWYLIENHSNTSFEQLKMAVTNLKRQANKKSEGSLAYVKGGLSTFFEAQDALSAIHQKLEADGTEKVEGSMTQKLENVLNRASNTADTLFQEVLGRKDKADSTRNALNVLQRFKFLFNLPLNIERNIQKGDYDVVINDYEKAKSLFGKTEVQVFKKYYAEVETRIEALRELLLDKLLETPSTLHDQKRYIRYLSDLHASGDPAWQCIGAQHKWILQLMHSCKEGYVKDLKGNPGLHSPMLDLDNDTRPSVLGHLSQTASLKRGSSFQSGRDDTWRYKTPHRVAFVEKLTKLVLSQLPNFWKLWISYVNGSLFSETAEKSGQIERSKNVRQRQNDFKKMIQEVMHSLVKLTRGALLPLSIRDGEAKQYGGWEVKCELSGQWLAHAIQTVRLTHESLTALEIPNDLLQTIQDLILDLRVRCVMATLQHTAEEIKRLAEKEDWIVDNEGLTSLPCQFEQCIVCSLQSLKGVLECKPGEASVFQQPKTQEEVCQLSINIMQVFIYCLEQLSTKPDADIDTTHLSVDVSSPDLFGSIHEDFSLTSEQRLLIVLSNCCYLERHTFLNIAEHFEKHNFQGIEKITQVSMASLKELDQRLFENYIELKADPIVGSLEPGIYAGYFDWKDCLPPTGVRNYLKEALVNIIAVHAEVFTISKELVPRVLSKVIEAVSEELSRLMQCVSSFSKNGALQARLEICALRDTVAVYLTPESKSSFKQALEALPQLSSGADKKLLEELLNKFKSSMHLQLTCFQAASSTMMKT
UniProt Q96ND0: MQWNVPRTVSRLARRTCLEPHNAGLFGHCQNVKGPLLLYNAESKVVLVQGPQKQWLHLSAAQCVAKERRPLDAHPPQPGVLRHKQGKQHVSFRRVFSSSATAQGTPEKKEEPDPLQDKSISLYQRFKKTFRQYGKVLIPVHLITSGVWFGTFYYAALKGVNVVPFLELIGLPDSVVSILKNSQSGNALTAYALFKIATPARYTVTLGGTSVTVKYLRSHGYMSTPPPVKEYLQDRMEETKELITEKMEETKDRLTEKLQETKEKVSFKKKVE

Columns and labels:
Assay in all cases: log2 fold change, soluble protein after heating vs DMSO (PISA); higher = thermal stabilisation; K562 lysate, 10 uM; active = over 0.2 and 3.5 SD of the protein, either way, in both replicates (recomputed)
[1] = compound: CS(=O)(=O)CCNCc1ccc(-c2ccc3ncnc(Nc4ccc(OCc5cccc(F)c5)c(Cl)c4)c3c2)o1 [lapatinib]
How it was run: (§1)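 Following dounce homogenisation of K562 pellets in PBS pH 7.4 with 1 mM MgCl2, crude extract at 1 mg/mL protein was incubated for 30 min with 10 μM compound. Aliquots were then heated for 3 min over 48°C-58°C and pooled, NP-40 was added to 0.5% at 4°C, and soluble protein was recovered as the supernatant at 21,000xg for 90 min. Channel-sum-equalised TMTpro 16plex LC-MS/MS quantified this protein. Each value, from duplicates, is a log-two fold change in thermal stability relative to solvent controls.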

[2] = compound: CS(=O)(=O)N1CCN(Cc2cc3nc(-c4cccc5[nH]ncc45)nc(N4CCOCC4)c3s2)CC1 [pictilisib]
How it was run: as §1

[3] = compound: C[C@@H](Oc1cc(-c2cnn(C3CCNCC3)c2)cnc1N)c1c(Cl)ccc(F)c1Cl [crizotinib]
How it was run: as §1

[4] = compound: C[C@H](C1=CC=C(C=C1)C(=O)NC2=C3C=CNC3=NC=C2)N
How it was run: as §1

[5] = compound: C[C@H](Nc1ncnc2nc[nH]c12)c1cc2cccc(Cl)c2c(=O)n1-c1ccccc1 [duvelisib]
How it was run: as §1

[6] = compound: Cc1cc(Nc2cc(CN3CCOCC3)c3nc(C)c(Cc4ccc(Cl)cc4F)n3n2)n[nH]1 [gandotinib]
How it was run: as §1

[7] = compound: Cc1cc(Nc2cc(N3CCN(C)CC3)nc(Sc3ccc(NC(=O)C4CC4)cc3)n2)n[nH]1 [tozasertib]
How it was run: as §1

[8] = compound: Cc1ccc(-n2nc(C(C)(C)C)cc2NC(=O)Nc2ccc(OCCN3CCOCC3)c3ccccc23)cc1 [doramapimod]
How it was run: as §1

[9] = compound: Cc1ccc(NC(=O)c2ccc(CN3CC[C@H](N(C)C)C3)c(C(F)(F)F)c2)cc1Nc1nccc(-c2cncnc2)n1 [bafetinib]
How it was run: as §1

[10] = compound: Cc1cccc(CC(=O)N2CCc3c2ccc(-c2cn(C)c4ncnc(N)c24)c3F)n1
How it was run: as §1

[11] = compound: Cc1cn(-c2cc(NC(=O)c3ccc(C)c(Nc4nccc(-c5cccnc5)n4)c3)cc(C(F)(F)F)c2)cn1 [nilotinib]
How it was run: as §1

[12] = compound: Cc1nc(Nc2n[nH]c3c2CN(C(=O)N[C@H](CN(C)C)c2ccccc2)C3(C)C)c2sccc2n1
How it was run: as §1

[13] = compound: Cc1nc(Nc2ncc(C(=O)Nc3c(C)cccc3Cl)s2)cc(N2CCN(CCO)CC2)n1 [dasatinib]
How it was run: as §1

[14] = compound: Cc1ncc(-c2ccnc(Nc3ccc(S(C)(=O)=O)cc3)n2)n1C(C)C
How it was run: as §1

[15] = compound: Cn1cc(-c2ccc3c(c2)CCN3C(=O)Cc2cccc(C(F)(F)F)c2)c2c(N)ncnc21
How it was run: as §1

[16] = compound: Cn1cc(CNCC2CCN(c3ncc(C(=O)NO)cn3)CC2)c2ccccc21 [quisinostat]
How it was run: as §1

[17] = compound: Cn1cncc1[C@@](N)(c1ccc(Cl)cc1)c1ccc2c(c1)c(-c1cccc(Cl)c1)cc(=O)n2C [tipifarnib]
How it was run: as §1

[18] = compound: NC(=O)Nc1cc(-c2cccc(F)c2)sc1C(=O)N[C@H]1CCCNC1
How it was run: as §1

[19] = compound: NC(=O)c1cnc(N[C@@H]2CCCC[C@@H]2N)nc1Nc1cccc(-n2nccn2)c1
How it was run: as §1

[20] = compound: NC1(c2ccc(-c3nc4ccn5c(=O)[nH]nc5c4cc3-c3ccccc3)cc2)CCC1
How it was run: as §1

Measured: log2 fold change

EXOSC8 (UniProt Q96B26)
inactive: [1] 0.02 | [2] -0.006 | [3] -0.003 | [4] -0.041 | [5] 0.045 | [6] 0.023 | [7] 0.002 | [8] -0.005 | [9] 0.061 | [10] -0.048 | [11] 0 | [12] 0.017 | [13] 0.001 | [14] -0.045 | [15] -0.022 | [16] -0.052 | [17] -0.039 | [18] -0.019 | [19] -0.002 | [20] -0.007

FAF2 (UniProt Q96CS3)
inactive: [1] 0.006 | [2] -0.015 | [3] -0.062 | [4] -0.044 | [5] -0.03 | [6] -0.051 | [7] 0.05 | [8] 0.023 | [9] -0.08 | [10] -0.003 | [11] 0.016 | [12] -0.068 | [13] -0.016 | [14] 0.01 | [15] 0.037 | [16] -0.051 | [17] -0.056 | [18] 0.027 | [19] -0.023 | [20] 0.016

FAHD1 (UniProt Q6P587)
inactive: [1] 0 | [2] -0.02 | [3] -0.164 | [4] -0.297 | [5] 0.067 | [6] 0.335 | [7] 0.018 | [8] -0.041 | [9] 0.016 | [10] 0.224 | [11] 0.055 | [12] -0.027 | [13] 0.028 | [14] 0 | [15] -0.149 | [16] -0.296 | [17] 0.022 | [18] 0.073 | [19] -0.019 | [20] -0.093

FADS3 (UniProt Q9Y5Q0)
inactive: [1] 0.13 | [2] -0.014 | [3] -0.065 | [4] -0.322 | [5] -0.09 | [6] 0 | [7] 0.079 | [8] -0.001 | [9] -0.131 | [10] -0.309 | [11] -0.091 | [12] 0.216 | [13] 0.102 | [14] 0.166 | [15] -0.061 | [16] -0.019 | [17] -0.081 | [18] -0.008 | [19] -0.069 | [20] 0.07

ESRRA (UniProt P11474)
active: [4] 0.444
inactive: [1] 0.026 | [2] -0.049 | [3] -0.025 | [5] 0.088 | [6] -0.115 | [7] 0.088 | [8] -0.028 | [9] 0.052 | [10] -0.149 | [11] -0.121 | [12] 0.016 | [13] 0.061 | [14] 0.035 | [15] -0.096 | [16] -0.038 | [17] 0.008 | [18] 0.158 | [19] -0.016 | [20] 0.016

EZH2 isoform 2 (UniProt Q15910)
inactive: [1] -0.033 | [2] -0.004 | [3] -0.044 | [4] 0.113 | [5] 0.013 | [6] -0.25 | [7] -0.074 | [8] 0.016 | [9] 0.015 | [10] -0.071 | [11] 0.002 | [12] 0.163 | [13] 0 | [14] -0.078 | [15] 0.026 | [16] -0.13 | [17] -0.027 | [18] 0.034 | [19] 0.01 | [20] -0.04

EXOC2 (UniProt Q96KP1)
inactive: [1] -0.016 | [2] -0.011 | [3] -0.099 | [4] 0.017 | [5] -0.032 | [6] -0.185 | [7] 0.001 | [8] 0.042 | [9] -0.056 | [10] 0.059 | [11] 0.009 | [12] 0.018 | [13] -0.041 | [14] -0.009 | [15] 0.022 | [16] -0.088 | [17] -0.022 | [18] 0.062 | [19] -0.003 | [20] -0.029

FAM210A (UniProt Q96ND0)
inactive: [1] -0.017 | [2] 0.002 | [3] -0.044 | [4] -0.022 | [5] -0.021 | [6] 0.02 | [7] -0.049 | [8] -0.003 | [9] 0.014 | [10] -0.064 | [11] 0.013 | [12] -0.038 | [13] 0.024 | [14] -0.013 | [15] 0.007 | [16] -0.051 | [17] -0.004 | [18] 0.009 | [19] -0.034 | [20] -0.01
